Results from US10858384B2, “Synthetic molecule constructs” (KODE BIOTECH LIMITED, priority 2004, dated 2020).
Several values for one entry are separate records, joined by “and”; a condition that tells them apart may be missing. Equal values may be shown once. For at least one compound, name, drawing or mass did not settle the structure. Marks after values point to notes of the source that are not given here.

Experiments:
RBCs [1] = assay: Evaluation of insertion of different lipid tails by agglutination with the relevant antisera; format: cell-based; design: scale not given here
From the text: Transformation of RBCs with synthetic glycolipids with different lipid tails was first evaluated (Tables 22 and 24).

[2] = tested on: endometrial epithelial cells; assay: Endometrial cell transformation, test for direct agglutination; format: cell-based; conditions: 1 mg/ml
RBCs [3] = assay: Insertion efficiency: post-transformation solutions concentrated 20x, Diamed serology; format: cell-based; conditions: 37° C. 1 h
Experimental: In addition, the post-transformation solutions were concentrated 20× and compared in parallel with the transformation solutions of known concentration. Only the post-transformation solutions derived from the 0.08 mg/mL Atri-sp-Ad-DOPE (I) and 0.6 mg/mL Btri-sp-Ad-DOPE (VI) solutions were tested.
Post-transformation solutions (20 μL) were dialysed (pore size 500 Da) against de-ionised water for 2 days. The samples were left to dry in a fumehood for 10 days. At the end of this time they were transferred into a rotavapor flask and set on the rotavapor to rotate under vacuum with no heat overnight. Samples were dried in a water bath at 40° C. and washed over into smaller vessels with chloroform-methanol 2:1 leaving significant amounts of dried cellular material. The chloroform-methanol 2:1 washings were dried down, washed over again into test-tubes with chloroform-methanol 2:1 and dried down. These samples were redissolved in 1 mL of 1× PBS and used for transformation experiments. The cellular material in the bottom of the flasks was washed out with water into another set of tubes.
The post-transformation solutions (from Atri-sp-Ad-DOPE (I) at 0.08 mg/mL and Btri-sp-Ad-DOPE (VI) at 0.6 mg/mL, 20 μL) were added to washed, packed RBCs (60 μL). In parallel, the transformation solutions (Atri-sp-Ad-DOPE (I) at 0.08 mg/mL, 0.05 mg/mL and 0.03 mg/mL, and Btri-sp-Ad-DOPE (VI) at 0.6 mg/mL, 20 μL) were added to washed, packed RBCs (60 μL).
The tubes were incubated in a 37° C. waterbath for one hour, with mixing taking place every 15 minutes. The transformed RBCs were washed 3× with PBS and then suspended in Cellstab™ at the appropriate concentration for serology testing.

[4] = tested on: endometrial epithelial cells; assay: Endometrial cell transformation, test for insertion using fluorescent probe; format: cell-based; conditions: 1 mg/ml
group O RBCs = assay: Diamed agglutination of RBCs transformed at 4° C. with synthetic glycolipids (weak A, B and AB cells); format: cell-based, human; conditions: Day = table row
Experimental: Transformation of RBCs with synthetic glycolipids Atri-sp-Ad-DOPE (I) and Btri-sp-Ad-DOPE (VI) at 4° C. was then evaluated (Tables 25 to 28). These transformations were directed towards the preparation of cells expressing low levels of A, B or A and B glycotopes (“weak A, B and AB cells”).
For the preparation of weak A and B cells transformation solutions (20 μL, Atri-sp-Ad-DOPE (I) at 0.08, 0.05 and 0.03 mg/mL, and Btri-sp-Ad-DOPE (VI) at 0.6, 0.3, 0.15, 0.08, 0.05 and 0.03 mg/mL) in 1× PBS were mixed with washed, packed group O RBCs (60 μL).
For the preparation of weak AB cells transformation solutions (20 μL, Atrii-sp-Ad-DOPE (I) at 0.07, 0.06 and 0.05 mg/mL, and Btri-sp-Ad-DOPE (VI) at 0.3, and 0.2 mg/mL) in 1× PBS were combined in block titre with washed, packed group O RBCs (60 μL). The combinations were: Atri-sp-Ad-DOPE (I) at 0.07 mg/mL+Btri-sp-Ad-DOPE (VI) at 0.3 mg/mL; Atri-sp-Ad-DOPE (I) at 0.07 mg/mL+Btri-sp-Ad-DOPE (VI) at 0.2 mg/mL; Atri-sp-Ad-DOPE (I) at 0.06 mg/mL+Btri-sp-Ad-DOPE (VI) at 0.3 mg/mL; Atri-sp-Ad-DOPE (I) at 0.06 mg/mL+Btri-sp-Ad-DOPE (VI) at 0.2 mg/mL; Atri-sp-Ad-DOPE (I) at 0.05 mg/mL+Btri-sp-Ad-DOPE (VI) at 0.3 mg/mL; and Atri-sp-Ad-DOPE (I) 0.05+Btri-sp-Ad-DOPE (VI) 0.2 mg/mL.
Cells and transformation solutions were placed in a […] fridge. Pipette mixing was performed at intervals. Cells were removed for testing at intervals against the relevant antisera and were tested in both washed and unwashed states (i.e. washed samples had the transformation solution removed).
After 46 hours Celpresol™ was added to the cells so that the final cells:non-cells ratio was 3:5 (v/v). The cells continued to be tested at intervals. Testing was discontinued after 10 days because cells turned brown.

SMILES: CCCCCCCC/C=C\CCCCCCCC(=O)OC[C@H](COP(=O)(O)OCCNC(=O)CCCCC(=O)NCCCO[C@@H]1O[C@H](CO)[C@H](O)[C@H](O[C@H]2O[C@H](CO)[C@H](O)[C@H](O)[C@H]2NC(C)=O)[C@H]1O[C@@H]1O[C@@H](C)[C@@H](O)[C@@H](O)[C@@H]1O)OC(=O)CCCCCCC/C=C\CCCCCCCC [Atri-sp-Ad-DOPE (I)]
- Agglutination score (RBCs [1]; 10 μg/mL, Alba anti-A, second series): 2+
- Agglutination score (RBCs [1]; 10 μg/mL, Bio anti-A, second series): 3+
- Agglutination score (RBCs [1]; 40 μg/mL, Bio anti-A, first series): 1+
- Agglutination score (RBCs [1]; 50 μg/mL, Alba anti-A, second series): 2-3+
- Agglutination score (RBCs [1]; 50 μg/mL, Bio anti-A, first series): 2+
- Agglutination score (RBCs [1]; 50 μg/mL, Bio anti-A, second series): 3+*
- Agglutination score (RBCs [1]; 100 μg/mL, Alba anti-A, second series): 3+
- Agglutination score (RBCs [1]; 100 μg/mL, Bio anti-A, second series): 4+*
- Agglutination score (RBCs [1]; 250 μg/mL, Alba anti-A, second series): 4+
- Agglutination score (RBCs [1]; 250 μg/mL, Bio anti-A, second series): 4+*
- Agglutination reaction by microscopic visualisation ([2]; Anti-A Bioclone): 4+
- Score (Diamed serology) (RBCs [3]; transformation solution 0.03 mg/mL): 1+
- Score (Diamed serology) (RBCs [3]; transformation solution 0.05 mg/mL): 2+
- Score (Diamed serology) (RBCs [3]; transformation solution 0.08 mg/mL): 3+
- Fluorescence score after incubation with IgFITC Probe ([4]; 1° antibody Anti-A Bioclone): 4+
- Agglutination score against anti-A (group O RBCs; (I) 0.05 + (VI) 0.2 mg/mL, unwashed): 1-2+ and 1+
- Agglutination score against anti-A (group O RBCs; (I) 0.05 + (VI) 0.3 mg/mL, unwashed): 1-2+ and 2+ and 1+
- Agglutination score against anti-A (group O RBCs; (I) 0.06 + (VI) 0.2 mg/mL, unwashed): 2+
- Agglutination score against anti-A (group O RBCs; (I) 0.06 + (VI) 0.2 mg/mL, washed): 1-2+
- Agglutination score against anti-A (group O RBCs; (I) 0.06 + (VI) 0.3 mg/mL, unwashed): 2+
- Agglutination score against anti-A (group O RBCs; (I) 0.06 + (VI) 0.3 mg/mL, washed): 1-2+
- Agglutination score against anti-A (group O RBCs; (I) 0.07 + (VI) 0.2 mg/mL, unwashed): 2-3+
- Agglutination score against anti-A (group O RBCs; (I) 0.07 + (VI) 0.2 mg/mL, washed): 2+
- Agglutination score against anti-A (group O RBCs; (I) 0.07 + (VI) 0.3 mg/mL, unwashed): 2-3+
- Agglutination score against anti-A (group O RBCs; weak AB cells: (I) 0.07 + (VI) 0.3 mg/mL, 4° C., washed): 2+

SMILES: CCCCCCCC/C=C\CCCCCCCC(=O)OC[C@H](COP(=O)(O)OCCNC(=O)CCCCC(=O)NCCCO[C@@H]1O[C@H](CO)[C@H](O)[C@H](O[C@H]2O[C@H](CO)[C@H](O)[C@H](O)[C@H]2O)[C@H]1O[C@@H]1O[C@@H](C)[C@@H](O)[C@@H](O)[C@@H]1O)OC(=O)CCCCCCC/C=C\CCCCCCCC [Btri-sp-Ad-DOPE (VI)]
- Agglutination score (RBCs [1]; 250 μg/mL, Alba anti-B, second series): 1+
- Agglutination score (RBCs [1]; 250 μg/mL, Bio anti-B, second series): 1+
- Agglutination score (RBCs [1]; 500 μg/mL, Alba anti-B, second series): 2+
- Agglutination score (RBCs [1]; 500 μg/mL, Bio anti-B, second series): 2+
- Agglutination score (RBCs [1]; 1000 μg/mL, Alba anti-B, first series): 3+
- Agglutination score (RBCs [1]; 1000 μg/mL, Alba anti-B, second series): 2+
- Agglutination score (RBCs [1]; 1000 μg/mL, Bio anti-B, first series): 3+
- Agglutination score (RBCs [1]; 1000 μg/mL, Bio anti-B, second series): 3+
- Agglutination reaction by microscopic visualisation ([2]; Anti-B Bioclone): 3+
- Score (Diamed serology) (RBCs [3]; transformation solution 0.60 mg/mL): 4+
- Fluorescence score after incubation with IgFITC Probe ([4]; 1° antibody Anti-B Bioclone): 1+
- Agglutination score against anti-B (group O RBCs; (VI) 0.2 + (I) 0.07 mg/mL, unwashed): 1+ and 2+
- Agglutination score against anti-B (group O RBCs; (VI) 0.3 + (I) 0.05 mg/mL, unwashed): 2+ and 2-3+
- Agglutination score against anti-B (group O RBCs; (VI) 0.3 + (I) 0.05 mg/mL, washed): 1+ and 2+
- Agglutination score against anti-B (group O RBCs; (VI) 0.3 + (I) 0.06 mg/mL, unwashed): 2+ and 3+
- Agglutination score against anti-B (group O RBCs; (VI) 0.3 + (I) 0.06 mg/mL, washed): 2+ and 3+
- Agglutination score against anti-B (group O RBCs; (VI) 0.3 + (I) 0.07 mg/mL, unwashed): 2+ and 3+
- Agglutination score against anti-B (group O RBCs; weak AB cells: (VI) 0.3 + (I) 0.07 mg/mL, 4° C., washed): 2+ and 3+
